We go through one substance from article PMC9834230, “The HAPSTR2 retrogene buffers stress signaling and resilience in mammals” (Nature Communications, 2023).

Protein sequences, listed by entry. Tags and fused reporters are not part of them.
UniProt Q7Z6Z7: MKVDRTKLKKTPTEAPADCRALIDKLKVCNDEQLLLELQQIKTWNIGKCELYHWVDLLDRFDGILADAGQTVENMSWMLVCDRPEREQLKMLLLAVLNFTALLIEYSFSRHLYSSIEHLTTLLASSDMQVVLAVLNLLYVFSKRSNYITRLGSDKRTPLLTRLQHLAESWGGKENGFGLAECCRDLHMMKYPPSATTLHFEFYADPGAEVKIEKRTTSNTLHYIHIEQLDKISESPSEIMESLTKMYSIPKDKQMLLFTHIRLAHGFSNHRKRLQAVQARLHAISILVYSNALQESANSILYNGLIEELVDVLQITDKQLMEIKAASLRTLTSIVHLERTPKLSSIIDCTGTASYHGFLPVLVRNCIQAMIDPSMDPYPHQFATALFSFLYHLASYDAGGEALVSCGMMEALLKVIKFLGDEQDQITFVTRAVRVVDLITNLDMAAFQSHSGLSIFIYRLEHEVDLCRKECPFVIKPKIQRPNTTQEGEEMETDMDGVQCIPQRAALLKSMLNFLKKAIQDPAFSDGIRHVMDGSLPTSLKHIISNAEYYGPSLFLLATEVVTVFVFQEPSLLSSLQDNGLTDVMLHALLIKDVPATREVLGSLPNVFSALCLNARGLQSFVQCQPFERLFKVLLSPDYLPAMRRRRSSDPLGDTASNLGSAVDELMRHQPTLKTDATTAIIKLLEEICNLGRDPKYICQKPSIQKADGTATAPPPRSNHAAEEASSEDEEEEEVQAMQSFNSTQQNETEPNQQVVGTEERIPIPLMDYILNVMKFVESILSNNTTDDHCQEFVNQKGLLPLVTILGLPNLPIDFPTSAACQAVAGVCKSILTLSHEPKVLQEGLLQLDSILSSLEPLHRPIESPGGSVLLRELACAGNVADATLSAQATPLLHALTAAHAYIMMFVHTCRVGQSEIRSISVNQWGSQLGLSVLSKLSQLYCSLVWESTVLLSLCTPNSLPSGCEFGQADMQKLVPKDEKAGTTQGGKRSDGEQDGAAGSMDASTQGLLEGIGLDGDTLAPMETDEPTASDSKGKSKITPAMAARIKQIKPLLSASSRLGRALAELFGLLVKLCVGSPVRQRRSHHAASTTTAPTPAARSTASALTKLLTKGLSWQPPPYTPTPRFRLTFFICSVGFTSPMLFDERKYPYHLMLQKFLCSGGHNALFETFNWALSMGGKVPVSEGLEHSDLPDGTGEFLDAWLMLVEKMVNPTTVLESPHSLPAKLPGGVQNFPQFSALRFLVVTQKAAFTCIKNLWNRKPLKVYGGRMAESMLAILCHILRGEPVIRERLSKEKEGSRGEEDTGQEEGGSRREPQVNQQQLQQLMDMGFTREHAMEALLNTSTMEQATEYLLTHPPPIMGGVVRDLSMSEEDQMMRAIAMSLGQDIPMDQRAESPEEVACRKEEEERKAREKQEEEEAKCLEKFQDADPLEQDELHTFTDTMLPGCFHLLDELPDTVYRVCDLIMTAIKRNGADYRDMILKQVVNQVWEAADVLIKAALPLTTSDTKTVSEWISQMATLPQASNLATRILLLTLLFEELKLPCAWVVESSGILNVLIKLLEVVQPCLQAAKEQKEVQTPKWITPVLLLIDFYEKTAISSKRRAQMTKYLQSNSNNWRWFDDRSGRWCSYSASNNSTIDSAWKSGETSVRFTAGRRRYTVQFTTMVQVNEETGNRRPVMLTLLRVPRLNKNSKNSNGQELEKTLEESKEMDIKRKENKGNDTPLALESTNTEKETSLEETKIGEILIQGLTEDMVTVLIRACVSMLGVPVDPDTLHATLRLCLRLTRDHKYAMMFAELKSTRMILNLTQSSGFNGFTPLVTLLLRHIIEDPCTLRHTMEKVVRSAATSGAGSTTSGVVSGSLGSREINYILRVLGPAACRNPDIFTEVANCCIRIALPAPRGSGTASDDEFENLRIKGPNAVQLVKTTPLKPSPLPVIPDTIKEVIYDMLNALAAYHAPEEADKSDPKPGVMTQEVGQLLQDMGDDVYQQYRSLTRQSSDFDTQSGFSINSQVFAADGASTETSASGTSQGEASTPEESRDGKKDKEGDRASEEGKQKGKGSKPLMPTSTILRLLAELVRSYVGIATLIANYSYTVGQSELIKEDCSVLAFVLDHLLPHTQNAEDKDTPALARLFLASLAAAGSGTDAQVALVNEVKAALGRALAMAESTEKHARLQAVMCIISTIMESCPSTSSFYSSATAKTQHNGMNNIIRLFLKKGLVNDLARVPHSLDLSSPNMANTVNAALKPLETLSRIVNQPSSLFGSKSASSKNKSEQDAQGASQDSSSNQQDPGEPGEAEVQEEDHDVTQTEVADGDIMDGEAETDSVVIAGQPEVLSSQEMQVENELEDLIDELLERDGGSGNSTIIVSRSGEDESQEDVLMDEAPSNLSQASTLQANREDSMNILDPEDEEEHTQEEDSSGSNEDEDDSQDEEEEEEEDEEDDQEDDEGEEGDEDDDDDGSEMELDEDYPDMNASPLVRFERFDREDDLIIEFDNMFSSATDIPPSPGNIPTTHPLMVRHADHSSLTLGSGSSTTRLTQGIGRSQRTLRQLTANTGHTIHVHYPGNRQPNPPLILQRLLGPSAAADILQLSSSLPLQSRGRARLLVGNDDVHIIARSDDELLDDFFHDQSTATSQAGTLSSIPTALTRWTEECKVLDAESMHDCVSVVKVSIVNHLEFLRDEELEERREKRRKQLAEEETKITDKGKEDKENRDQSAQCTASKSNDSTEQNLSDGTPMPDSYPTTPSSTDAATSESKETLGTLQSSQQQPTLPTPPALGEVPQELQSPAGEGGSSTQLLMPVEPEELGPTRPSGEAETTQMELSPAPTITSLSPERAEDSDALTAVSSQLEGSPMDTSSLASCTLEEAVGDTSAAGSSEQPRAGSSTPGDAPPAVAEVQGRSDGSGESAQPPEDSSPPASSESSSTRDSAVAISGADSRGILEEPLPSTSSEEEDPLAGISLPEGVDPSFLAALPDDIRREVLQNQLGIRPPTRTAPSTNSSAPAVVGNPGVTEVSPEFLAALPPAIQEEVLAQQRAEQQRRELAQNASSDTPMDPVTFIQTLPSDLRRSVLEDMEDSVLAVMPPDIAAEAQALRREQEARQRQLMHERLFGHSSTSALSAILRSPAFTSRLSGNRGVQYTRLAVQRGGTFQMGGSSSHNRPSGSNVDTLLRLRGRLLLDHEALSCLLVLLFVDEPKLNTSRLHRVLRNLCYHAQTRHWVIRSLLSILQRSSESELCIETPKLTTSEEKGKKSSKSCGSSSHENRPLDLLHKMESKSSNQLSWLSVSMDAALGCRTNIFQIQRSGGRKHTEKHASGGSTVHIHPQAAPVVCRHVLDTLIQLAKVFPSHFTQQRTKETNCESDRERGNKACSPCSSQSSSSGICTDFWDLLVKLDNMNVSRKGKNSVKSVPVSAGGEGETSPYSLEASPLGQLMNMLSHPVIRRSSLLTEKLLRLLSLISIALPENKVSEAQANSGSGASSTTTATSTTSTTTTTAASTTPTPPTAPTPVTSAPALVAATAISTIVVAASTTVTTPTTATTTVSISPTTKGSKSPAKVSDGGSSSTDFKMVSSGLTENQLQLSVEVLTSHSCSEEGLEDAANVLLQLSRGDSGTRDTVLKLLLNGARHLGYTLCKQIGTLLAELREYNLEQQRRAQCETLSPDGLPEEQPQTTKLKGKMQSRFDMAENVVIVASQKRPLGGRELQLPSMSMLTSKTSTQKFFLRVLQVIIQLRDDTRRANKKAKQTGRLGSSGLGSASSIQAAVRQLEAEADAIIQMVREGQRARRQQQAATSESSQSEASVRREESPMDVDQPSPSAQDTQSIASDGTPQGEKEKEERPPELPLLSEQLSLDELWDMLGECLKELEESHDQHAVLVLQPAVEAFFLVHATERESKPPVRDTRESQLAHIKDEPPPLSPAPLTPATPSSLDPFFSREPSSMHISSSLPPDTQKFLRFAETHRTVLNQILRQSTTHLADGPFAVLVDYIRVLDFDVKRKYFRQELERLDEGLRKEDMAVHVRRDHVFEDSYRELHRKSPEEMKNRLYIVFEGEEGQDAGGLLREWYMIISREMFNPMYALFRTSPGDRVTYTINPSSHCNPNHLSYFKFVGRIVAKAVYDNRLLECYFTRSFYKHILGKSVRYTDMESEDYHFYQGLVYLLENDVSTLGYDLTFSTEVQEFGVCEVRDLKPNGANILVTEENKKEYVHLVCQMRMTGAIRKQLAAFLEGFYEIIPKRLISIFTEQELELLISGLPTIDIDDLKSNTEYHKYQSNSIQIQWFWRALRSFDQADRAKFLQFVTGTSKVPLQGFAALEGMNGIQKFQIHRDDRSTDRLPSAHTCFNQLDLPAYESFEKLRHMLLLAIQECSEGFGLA

These are yes or no findings as the source states them, for the method shown. Binding seen in cells or lysates may run through a third protein. These calls come from enrichment with a bait or labelling near it, and not all partners need be listed. Where a sequence is shown, tags or fusion partners need not be part of it.

Test [1] concerns the target T1, FLAG-HAPSTR1 (human) (UniProt Q14CZ0).
T1 sequence: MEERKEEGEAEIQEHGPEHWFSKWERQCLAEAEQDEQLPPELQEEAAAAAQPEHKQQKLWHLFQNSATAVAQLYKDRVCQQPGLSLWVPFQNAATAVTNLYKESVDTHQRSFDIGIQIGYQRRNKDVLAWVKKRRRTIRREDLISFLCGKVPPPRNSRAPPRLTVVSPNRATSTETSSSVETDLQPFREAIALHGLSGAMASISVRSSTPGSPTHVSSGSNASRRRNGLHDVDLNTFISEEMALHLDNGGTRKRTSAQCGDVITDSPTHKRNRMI
Nature of the test: affinity purification with mass spectrometry; FLAG co-IPs from empty vector, FLAG-HAPSTR1 or FLAG-HAPSTR2 293T cells; in-gel digestion, LC-MS/MS; two independent experiments.

Test [2] concerns the target T2, FLAG-tagged HAPSTR2 (human).
T2 sequence: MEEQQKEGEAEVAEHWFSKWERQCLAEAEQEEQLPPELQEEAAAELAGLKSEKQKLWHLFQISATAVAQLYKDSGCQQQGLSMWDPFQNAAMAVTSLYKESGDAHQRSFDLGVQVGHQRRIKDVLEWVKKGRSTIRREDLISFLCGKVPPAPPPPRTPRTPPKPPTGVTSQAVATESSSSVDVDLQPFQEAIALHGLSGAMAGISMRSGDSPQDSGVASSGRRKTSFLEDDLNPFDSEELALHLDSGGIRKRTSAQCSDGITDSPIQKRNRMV
The test is described as above.

“HUWE1 (from UniProt Q7Z6Z7 1-4374) (enzyme)”: the binding entry in test [1] and in test [2] was “binds” throughout.
